## Screening data, single-dose tests

Data taken from ChEMBL document CHEMBL3988442, “University of Dundee, Small-Polar-MMV Screening Library” (2021).

Values are the deposited “Percent Effect”, in %.
The record does not define 0% and 100%; most values in the screen are far below 50% and negative numbers occur (in some assays of this library far below -100).
This is an unselected part of the compounds tested.

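Whole-parasite assay of Trypanosoma brucei over 72 hours; the read-out is not stated. Compounds at 30 µM. The record gives no direction; compounds that gave an IC50 in retests scored well above the rest, so higher reads as stronger inhibition. Values scatter widely below zero; nearly all retest evidence comes from the higher of the two concentrations used. About 64,000 compounds were tested under these conditions; 1.5% (about 940) showed 50% or more at least once.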

{"smiles": "O=C(c1cc(COc2ccc3c(c2)OCO3)[nH]n1)N1CCCCO1", "percent effect": -28.47}
{"smiles": "CCN(Cc1ccncc1)Cc1c[nH]nc1-c1ccc(F)cc1", "percent effect": 5.833}
{"smiles": "CNS(=O)(=O)CCCN1CCCN(Cc2ccccc2)CC1C", "stereo": "configuration not stated", "percent effect": -165.4}
{"smiles": "CC(C)COCC(NC(=O)CSc1nnc[nH]1)c1ccco1", "stereo": "configuration not stated", "percent effect": -2.248}
{"smiles": "COCC(Nc1ncnc2sc(C(=O)O)c(C)c12)c1ccnn1C", "stereo": "configuration not stated", "percent effect": -9.103}
{"smiles": "COc1cc(NCc2cccnc2)c(-c2nn[nH]n2)cc1OC", "percent effect": -6.783}
{"smiles": "COCC(C)NC(=O)NCCCc1cc(N)n(-c2ccccc2)n1", "stereo": "configuration not stated", "percent effect": -33.12}
{"smiles": "CC(C)Cc1cc(C(=O)NCCc2nnc(N)s2)n(C)n1", "percent effect": -41.44}
{"smiles": "Cc1nonc1OCCNC(=O)COc1ccc(Cl)cc1Cl", "percent effect": -23.04}
{"smiles": "COc1cccc(CC(=O)N2CCCC2c2nc(C)c(C)c(O)n2)c1", "stereo": "configuration not stated", "percent effect": -7.196}
{"smiles": "Cc1cc2nc(SCC(=O)N3CCCC3)n(-c3ccccc3)c(=O)c2[nH]1", "percent effect": 9.5}
{"smiles": "O=C(O)CC1CN(S(=O)(=O)c2cccc(F)c2)c2ccccc21", "stereo": "configuration not stated", "percent effect": -18.38}
{"smiles": "CCc1c(C)nc2n(c1=O)CC(C(=O)Nc1nc3c(s1)CCCC3)CS2", "stereo": "configuration not stated", "percent effect": 17.71}
{"smiles": "Cc1cc(CNCC2(O)CCOCC2)ccc1F", "percent effect": -23.98}
{"smiles": "Cn1c(CN2CCN(CC3CC3)CC2)nnc1C1CCC1", "percent effect": -87.31}
{"smiles": "O=C(CC1CCCO1)Nc1ccn(Cc2cccc3cccnc23)n1", "stereo": "configuration not stated", "percent effect": -0.8232}
{"smiles": "COC1(CNC(=O)c2ccoc2)CCSC1", "stereo": "configuration not stated", "percent effect": -28.51}
{"smiles": "CSCC[C@H](NC(=O)CCn1ccc2c(Br)cccc21)C(=O)O", "percent effect": -38.03}
{"smiles": "c1csc(-c2nc(CN3CCCC3Cn3cncn3)co2)c1", "stereo": "configuration not stated", "percent effect": -82.72}
{"smiles": "COCCN1CCC(CNC(=O)C2(c3ccc(Br)cc3)CCCC2)C1", "stereo": "configuration not stated", "percent effect": 15.38}
{"smiles": "CC(C)c1cc(NCC2(N(C)C)CCCC2)ncn1", "percent effect": -17.53}
{"smiles": "CC1(C)CN(Cc2ccncc2)CCS1(=O)=O", "percent effect": 23.34}
{"smiles": "CCNS(=O)(=O)C1CCN(C(=O)c2ccc(CC)o2)C1", "stereo": "configuration not stated", "percent effect": -18.61}
{"smiles": "CN(Cc1cc(-c2ccncc2)no1)C(=O)[C@@H]1CSCN1C", "percent effect": -13.89}
{"smiles": "COc1cccc(N2CCN(Cc3ccc4[nH]ccc4c3)CC2=O)c1", "percent effect": 1.04}
{"smiles": "Cc1ccc(CC(=O)N2CCC(Nc3cccnn3)CC2)s1", "percent effect": -7.141}
{"smiles": "CN1CCC(N(CCc2ccccc2)C(=O)c2cc[nH]c2)CC1", "percent effect": -2.15}
{"smiles": "[H][C@]12CCN(C(=O)COC)CC[C@@]1([H])S(=O)(=O)N(Cc1cccc(Cl)c1)C2", "percent effect": -28.47}
{"smiles": "O=C(O)C(F)(F)F.[H][C@@]12COC[C@]1(COCC(=O)N(C)C)CN(CC1CCC1)C2", "percent effect": -34.62}
{"smiles": "Cc1cc2n(n1)CC(CNCc1ccc(-n3ccnc3C)nc1)CN2", "stereo": "configuration not stated", "percent effect": 8.771}
{"smiles": "COc1ccc(NC(=O)N2CCC(CSC)C2)cc1C", "stereo": "configuration not stated", "percent effect": -24.11}
{"smiles": "c1ccc(CCCN2CCN(CCn3cncn3)CC2)cc1", "percent effect": -22.76}
{"smiles": "O=C(O)CC[C@@H]1CN(c2ccncc2)CC[C@@H]1N1CCOCC1", "percent effect": -14.21}
{"smiles": "CN(Cc1cnn(C)c1)S(=O)(=O)N1CCCCC1", "percent effect": -17.45}
{"smiles": "O=C(Cc1ccc(-n2cnnn2)cc1)Nc1nncs1", "percent effect": -22.68}
{"smiles": "Cc1nc(-c2cc(C(=O)NC(C)(C(=O)O)C(C)C)co2)cs1", "stereo": "configuration not stated", "percent effect": -16.97}
{"smiles": "NS(=O)(=O)CCN1CCOC(c2ccsc2)C1", "stereo": "configuration not stated", "percent effect": -67.92}